These are yes or no findings as the source states them, for the method shown. In cells and extracts the contact can be indirect. Some results given as binding are weak or reduced against the parent protein; the word gives no strength.
How the values were obtained:
Test in all cases: co-IP; hPdLFs at 75% confluency stimulated with 5 ng/mL rhGDF15 for 24 h, harvested in ice-cold PBS; precipitation with antibodies against ALK1, ALK2 or ALK5; GDF15 detected by semi-dry Western blot; only the binder purified
[1] = biological target: Activin A receptor like type 1 (ALK1) (human (endogenous in hPdLFs)) (UniProt P37023)
[2] = biological target: T1, Activin A receptor type 1 (ALK2) (human (endogenous in hPdLFs)) (UniProt Q04771)
T1 sequence: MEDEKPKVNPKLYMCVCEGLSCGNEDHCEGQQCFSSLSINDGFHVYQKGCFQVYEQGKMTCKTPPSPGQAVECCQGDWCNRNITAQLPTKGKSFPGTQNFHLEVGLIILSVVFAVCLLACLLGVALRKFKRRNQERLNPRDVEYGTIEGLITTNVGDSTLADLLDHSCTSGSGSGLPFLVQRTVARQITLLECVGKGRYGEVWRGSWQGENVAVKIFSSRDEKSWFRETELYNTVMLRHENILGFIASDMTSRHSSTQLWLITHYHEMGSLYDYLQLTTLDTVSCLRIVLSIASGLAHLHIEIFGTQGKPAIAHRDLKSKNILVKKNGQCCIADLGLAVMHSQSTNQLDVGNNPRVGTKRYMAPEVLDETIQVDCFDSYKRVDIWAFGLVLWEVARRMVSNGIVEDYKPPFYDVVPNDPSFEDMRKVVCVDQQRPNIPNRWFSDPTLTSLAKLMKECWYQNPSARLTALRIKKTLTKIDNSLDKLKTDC

The chains behind the UniProt entries cited, without tags or fusion partners. Residues count along the entry.
UniProt P37023, residues 22-503: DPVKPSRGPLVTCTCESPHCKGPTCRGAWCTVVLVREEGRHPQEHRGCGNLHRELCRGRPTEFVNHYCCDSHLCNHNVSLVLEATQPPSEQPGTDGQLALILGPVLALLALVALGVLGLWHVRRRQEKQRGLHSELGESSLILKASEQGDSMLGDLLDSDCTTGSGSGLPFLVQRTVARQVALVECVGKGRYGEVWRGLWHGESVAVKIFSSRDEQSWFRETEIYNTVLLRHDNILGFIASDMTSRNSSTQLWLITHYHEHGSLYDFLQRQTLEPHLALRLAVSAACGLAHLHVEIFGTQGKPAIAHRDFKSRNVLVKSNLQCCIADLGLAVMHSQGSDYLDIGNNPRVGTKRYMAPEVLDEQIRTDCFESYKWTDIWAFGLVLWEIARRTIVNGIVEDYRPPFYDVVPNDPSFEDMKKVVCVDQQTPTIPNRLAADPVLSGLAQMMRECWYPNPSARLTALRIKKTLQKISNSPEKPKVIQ

[3] = biological target: T2, Transforming growth factor beta receptor 1 (ALK5) (human (endogenous in hPdLFs)) (UniProt P36897)
T2 sequence: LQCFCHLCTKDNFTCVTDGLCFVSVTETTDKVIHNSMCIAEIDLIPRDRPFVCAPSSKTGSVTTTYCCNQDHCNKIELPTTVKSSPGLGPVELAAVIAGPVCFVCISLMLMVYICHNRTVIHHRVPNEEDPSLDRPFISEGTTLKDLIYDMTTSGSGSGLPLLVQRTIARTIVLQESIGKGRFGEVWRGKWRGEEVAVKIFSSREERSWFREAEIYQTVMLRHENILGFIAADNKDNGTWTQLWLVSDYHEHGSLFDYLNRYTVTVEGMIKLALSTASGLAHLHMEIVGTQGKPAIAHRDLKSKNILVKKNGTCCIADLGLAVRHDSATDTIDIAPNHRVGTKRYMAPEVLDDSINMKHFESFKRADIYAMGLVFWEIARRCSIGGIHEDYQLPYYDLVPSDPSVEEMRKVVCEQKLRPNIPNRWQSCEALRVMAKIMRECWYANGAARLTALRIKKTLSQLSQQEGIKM

binding [1]: binds | binding [2]: binds | binding [3]: binds
B1: recombinant human GDF15 (growth differentiation factor 15) (ligand, UniProt Q99988 195-308)
chain: ARARNGDHCPLGPGRCCRLHTVRASLEDLGWADWVLSPREVQVTMCIGACPSQFRAANMHAQIKTSLHRLKPDTVPAPCCVPASYNPMVLIQKTDTGVSLQTYDDLLAKDCHCI

Source: article PMC10298702
